Measured values: publication PMC3806365
These are yes or no findings as the source states them, for the method shown. Binding seen in cells or lysates may run through a third protein. Some binding calls cover weakened binding; strength is not graded here.

Sequences of proteins named here, by UniProt entry; tags and fusion partners are left off.
UniProt P48722: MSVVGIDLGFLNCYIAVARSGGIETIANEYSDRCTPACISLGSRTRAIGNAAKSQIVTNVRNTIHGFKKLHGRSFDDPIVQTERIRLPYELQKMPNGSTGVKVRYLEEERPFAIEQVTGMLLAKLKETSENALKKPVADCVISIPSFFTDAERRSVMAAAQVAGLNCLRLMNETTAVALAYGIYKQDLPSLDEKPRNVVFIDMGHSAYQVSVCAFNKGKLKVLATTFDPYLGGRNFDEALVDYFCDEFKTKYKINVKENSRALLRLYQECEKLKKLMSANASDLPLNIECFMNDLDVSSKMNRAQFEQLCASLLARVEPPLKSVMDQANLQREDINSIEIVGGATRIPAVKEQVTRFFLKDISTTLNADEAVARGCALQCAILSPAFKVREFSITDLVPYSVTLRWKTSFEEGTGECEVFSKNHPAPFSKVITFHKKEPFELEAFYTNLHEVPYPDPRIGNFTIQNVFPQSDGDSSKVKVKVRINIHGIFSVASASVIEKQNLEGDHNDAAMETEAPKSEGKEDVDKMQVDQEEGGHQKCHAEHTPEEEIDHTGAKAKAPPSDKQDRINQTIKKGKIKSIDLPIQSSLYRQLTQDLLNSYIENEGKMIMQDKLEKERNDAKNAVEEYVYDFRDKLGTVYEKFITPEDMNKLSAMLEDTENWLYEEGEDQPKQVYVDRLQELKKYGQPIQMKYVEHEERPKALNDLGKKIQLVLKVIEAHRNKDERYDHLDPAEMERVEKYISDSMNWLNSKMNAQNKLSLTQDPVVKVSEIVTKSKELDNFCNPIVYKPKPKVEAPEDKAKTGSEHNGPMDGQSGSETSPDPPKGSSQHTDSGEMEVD
UniProt Q61316: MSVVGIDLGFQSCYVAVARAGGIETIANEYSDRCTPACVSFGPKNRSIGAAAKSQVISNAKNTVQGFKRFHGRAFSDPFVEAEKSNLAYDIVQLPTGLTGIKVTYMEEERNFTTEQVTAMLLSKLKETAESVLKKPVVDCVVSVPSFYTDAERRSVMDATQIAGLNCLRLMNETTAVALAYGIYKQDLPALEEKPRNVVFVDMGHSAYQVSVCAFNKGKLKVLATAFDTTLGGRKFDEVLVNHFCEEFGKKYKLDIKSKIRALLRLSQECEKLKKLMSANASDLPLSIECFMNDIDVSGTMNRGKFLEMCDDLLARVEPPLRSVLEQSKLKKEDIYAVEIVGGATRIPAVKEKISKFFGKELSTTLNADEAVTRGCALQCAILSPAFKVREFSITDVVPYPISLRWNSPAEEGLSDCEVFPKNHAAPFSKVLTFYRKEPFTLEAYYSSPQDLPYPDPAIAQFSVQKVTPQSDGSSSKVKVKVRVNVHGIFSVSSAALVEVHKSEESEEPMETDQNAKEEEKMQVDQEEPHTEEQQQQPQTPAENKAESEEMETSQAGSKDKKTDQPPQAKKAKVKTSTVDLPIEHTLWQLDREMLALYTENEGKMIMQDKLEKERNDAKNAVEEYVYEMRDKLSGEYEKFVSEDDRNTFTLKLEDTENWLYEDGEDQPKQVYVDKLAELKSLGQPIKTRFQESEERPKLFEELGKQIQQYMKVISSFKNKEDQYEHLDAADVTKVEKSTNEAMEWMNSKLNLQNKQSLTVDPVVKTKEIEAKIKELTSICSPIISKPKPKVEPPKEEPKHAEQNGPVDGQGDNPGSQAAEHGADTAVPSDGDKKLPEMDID
UniProt P11798: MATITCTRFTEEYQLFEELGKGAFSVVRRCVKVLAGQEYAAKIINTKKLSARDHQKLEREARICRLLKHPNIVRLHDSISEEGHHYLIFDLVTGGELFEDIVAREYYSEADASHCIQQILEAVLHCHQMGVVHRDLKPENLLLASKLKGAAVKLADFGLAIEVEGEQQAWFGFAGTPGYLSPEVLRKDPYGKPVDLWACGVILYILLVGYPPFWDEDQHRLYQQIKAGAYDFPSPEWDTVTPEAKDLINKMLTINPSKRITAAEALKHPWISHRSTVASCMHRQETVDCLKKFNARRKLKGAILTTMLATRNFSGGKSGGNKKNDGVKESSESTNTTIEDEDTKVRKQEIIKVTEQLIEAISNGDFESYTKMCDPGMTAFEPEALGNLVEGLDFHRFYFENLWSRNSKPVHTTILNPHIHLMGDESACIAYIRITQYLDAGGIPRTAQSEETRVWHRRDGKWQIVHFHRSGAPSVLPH

Assays:
[1] = molecular target: T1, Nogo-A, full length, overexpressed in CHO-K1 cells (Nogo-A_pcDNA3) (UniProt Q9JK11); test: co-IP; Apg-1 co-transfected with Nogo-A or Nogo-B in adherent CHO-K1 cells, lysed in buffer A (50 mM Hepes pH 7.6, 150 mM NaCl, 10% glycerol, 1% Triton X-100); 200 μg of lysate with 6 μg of rabbit anti-Nogo-A/B (Bianca), rabbit anti-Apg-1 or rabbit IgG; Western blot
T1 sequence: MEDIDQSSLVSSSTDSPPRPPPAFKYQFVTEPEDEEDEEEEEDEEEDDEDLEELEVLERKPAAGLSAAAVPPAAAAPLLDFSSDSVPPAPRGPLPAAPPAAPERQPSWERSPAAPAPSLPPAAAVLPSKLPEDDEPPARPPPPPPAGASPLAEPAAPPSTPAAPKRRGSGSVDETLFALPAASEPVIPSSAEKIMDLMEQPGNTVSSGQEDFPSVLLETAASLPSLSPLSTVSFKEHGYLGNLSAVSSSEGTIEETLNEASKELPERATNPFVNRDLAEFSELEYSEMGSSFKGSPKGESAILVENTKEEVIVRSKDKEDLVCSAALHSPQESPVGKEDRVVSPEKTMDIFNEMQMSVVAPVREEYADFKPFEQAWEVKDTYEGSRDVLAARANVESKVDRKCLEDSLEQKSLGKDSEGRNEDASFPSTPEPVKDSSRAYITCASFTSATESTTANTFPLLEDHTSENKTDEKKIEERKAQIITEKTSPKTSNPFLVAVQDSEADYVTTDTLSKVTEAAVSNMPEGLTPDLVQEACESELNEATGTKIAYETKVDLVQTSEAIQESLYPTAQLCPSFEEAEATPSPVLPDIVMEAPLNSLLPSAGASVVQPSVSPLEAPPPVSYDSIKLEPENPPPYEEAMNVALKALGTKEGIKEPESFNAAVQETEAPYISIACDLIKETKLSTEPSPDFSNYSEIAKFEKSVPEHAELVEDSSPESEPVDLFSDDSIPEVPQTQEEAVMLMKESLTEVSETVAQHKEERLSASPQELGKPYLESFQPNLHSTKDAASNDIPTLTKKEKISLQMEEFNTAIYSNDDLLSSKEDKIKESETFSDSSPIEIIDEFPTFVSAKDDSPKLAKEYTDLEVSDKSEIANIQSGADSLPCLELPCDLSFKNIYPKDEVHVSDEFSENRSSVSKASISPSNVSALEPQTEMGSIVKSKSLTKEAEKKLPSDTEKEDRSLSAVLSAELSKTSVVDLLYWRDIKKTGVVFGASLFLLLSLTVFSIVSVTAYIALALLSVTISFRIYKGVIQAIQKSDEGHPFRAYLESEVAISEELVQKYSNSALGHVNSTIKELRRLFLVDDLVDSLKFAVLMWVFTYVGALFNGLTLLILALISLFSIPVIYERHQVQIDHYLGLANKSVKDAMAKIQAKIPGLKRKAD

[2] = molecular target: T2, Nogo-A/RTN4-A (endogenous, mouse) (mouse (endogenous in brain and hippocampal neurons)) (UniProt Q99P72); test: co-IP; endogenous proteins, brain lysate from a 4-week-old mouse, 1 mg of total protein; 6 μg of rabbit anti-Nogo-A/B (Bianca), rabbit anti-Apg-1 or rabbit IgG; Western blot
T2 sequence: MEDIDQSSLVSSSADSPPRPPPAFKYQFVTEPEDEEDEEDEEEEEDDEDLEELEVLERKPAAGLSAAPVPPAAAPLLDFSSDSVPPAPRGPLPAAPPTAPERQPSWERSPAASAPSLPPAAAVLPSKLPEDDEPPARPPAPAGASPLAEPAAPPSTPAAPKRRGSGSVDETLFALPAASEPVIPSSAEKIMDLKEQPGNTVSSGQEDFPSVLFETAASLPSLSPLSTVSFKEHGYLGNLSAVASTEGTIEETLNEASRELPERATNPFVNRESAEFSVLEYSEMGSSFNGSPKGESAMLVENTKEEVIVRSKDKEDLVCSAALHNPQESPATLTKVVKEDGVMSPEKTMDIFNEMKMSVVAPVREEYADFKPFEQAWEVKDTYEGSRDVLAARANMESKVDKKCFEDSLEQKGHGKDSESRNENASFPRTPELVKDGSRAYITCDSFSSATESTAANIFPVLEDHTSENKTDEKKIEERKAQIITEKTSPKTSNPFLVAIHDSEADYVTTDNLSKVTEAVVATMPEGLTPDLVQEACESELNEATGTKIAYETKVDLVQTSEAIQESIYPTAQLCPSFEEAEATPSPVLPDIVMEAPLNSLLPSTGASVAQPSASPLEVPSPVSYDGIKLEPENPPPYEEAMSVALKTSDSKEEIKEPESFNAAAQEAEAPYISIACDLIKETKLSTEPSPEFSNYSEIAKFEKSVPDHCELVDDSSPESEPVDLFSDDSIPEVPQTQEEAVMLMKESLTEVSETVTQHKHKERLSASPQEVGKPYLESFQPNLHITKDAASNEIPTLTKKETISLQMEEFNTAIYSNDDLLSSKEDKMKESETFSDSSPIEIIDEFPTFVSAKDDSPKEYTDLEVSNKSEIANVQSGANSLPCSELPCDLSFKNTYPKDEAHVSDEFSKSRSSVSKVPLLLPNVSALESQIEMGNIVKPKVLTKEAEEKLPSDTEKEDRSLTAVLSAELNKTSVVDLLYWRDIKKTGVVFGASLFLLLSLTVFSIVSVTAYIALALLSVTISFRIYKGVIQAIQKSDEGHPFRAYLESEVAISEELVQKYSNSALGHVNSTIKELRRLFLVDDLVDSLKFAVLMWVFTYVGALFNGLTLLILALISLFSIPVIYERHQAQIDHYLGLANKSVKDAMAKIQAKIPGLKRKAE

[3] = molecular target: T3, Nogo-A (RTN4-A), endogenous (mouse (endogenous in mouse brain)) (UniProt Q99P72); test: co-IP; endogenous proteins, mouse brain lysate
T3 sequence: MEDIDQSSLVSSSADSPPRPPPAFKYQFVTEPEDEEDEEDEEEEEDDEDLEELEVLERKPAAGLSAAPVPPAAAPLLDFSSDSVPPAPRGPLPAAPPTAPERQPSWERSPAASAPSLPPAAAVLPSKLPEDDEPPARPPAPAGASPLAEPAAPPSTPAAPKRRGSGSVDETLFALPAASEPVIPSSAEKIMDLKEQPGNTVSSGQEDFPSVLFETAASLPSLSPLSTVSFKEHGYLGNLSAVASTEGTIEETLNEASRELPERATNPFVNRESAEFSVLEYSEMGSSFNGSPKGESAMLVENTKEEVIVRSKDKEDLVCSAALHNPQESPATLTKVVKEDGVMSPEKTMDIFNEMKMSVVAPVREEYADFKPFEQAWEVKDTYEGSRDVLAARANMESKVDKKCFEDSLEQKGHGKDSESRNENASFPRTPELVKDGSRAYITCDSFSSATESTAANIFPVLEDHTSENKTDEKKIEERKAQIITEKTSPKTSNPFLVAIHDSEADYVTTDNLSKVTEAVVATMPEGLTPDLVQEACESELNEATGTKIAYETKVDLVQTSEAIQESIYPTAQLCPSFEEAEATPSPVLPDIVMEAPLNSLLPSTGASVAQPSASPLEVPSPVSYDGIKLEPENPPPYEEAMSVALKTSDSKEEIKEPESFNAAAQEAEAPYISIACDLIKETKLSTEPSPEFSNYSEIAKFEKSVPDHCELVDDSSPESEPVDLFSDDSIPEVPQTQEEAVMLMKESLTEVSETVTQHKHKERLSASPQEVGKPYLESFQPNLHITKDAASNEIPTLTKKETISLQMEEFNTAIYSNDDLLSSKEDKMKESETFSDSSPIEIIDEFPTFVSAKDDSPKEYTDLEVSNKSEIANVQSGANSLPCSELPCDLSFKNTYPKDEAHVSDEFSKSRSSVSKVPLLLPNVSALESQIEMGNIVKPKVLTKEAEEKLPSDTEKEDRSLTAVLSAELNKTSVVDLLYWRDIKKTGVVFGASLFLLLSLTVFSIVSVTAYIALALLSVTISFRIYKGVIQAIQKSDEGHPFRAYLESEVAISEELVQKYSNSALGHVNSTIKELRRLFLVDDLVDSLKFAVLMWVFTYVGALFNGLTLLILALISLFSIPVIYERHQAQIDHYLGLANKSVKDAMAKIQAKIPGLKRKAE

## Apg-1 (mouse), overexpressed in CHO-K1 cells (from UniProt P48722 1-838)
[1]
  binding: binds

## Apg-2 (endogenous, mouse brain) (from UniProt Q61316 1-841)
[2]
  binding: no binding

## CaMKIIα (Ca2+/calmodulin-dependent protein kinase II) (from UniProt P11798 1-478) (enzyme)
[3]
  binding: no binding
